Results from PMC7457539.
These are yes or no findings as the source states them, for the method shown. In cells and extracts the contact can be indirect. These calls come from enrichment with a bait or labelling near it, and not all partners need be listed.

The chains behind the UniProt entries cited, without tags or fusion partners.
UniProt O15372: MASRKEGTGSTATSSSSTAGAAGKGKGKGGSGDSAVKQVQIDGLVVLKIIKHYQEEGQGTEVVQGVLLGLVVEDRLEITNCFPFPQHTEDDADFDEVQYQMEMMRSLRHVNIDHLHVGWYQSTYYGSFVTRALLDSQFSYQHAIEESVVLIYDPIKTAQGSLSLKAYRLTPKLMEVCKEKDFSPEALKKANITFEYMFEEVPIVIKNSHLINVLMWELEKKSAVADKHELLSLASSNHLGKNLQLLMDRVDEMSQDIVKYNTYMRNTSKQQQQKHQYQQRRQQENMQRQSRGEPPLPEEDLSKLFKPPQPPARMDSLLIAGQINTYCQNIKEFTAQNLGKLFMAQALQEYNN
UniProt O95863: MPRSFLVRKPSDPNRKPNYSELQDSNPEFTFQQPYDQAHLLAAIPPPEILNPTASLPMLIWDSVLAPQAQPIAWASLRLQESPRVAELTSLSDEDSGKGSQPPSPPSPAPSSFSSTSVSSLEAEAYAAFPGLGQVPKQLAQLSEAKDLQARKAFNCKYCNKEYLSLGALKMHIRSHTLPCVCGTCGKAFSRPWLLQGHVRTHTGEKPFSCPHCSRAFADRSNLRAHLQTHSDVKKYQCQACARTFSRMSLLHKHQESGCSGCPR

Molecular target: EIF3H-Flag (human) (UniProt O15372)
Experiment: affinity purification with mass spectrometry; EIF3H-Flag or vector transfected in HEK293T for 24 h, 10 uM MG132 for 4 h, lysate immunoprecipitated with anti-FLAG M2 beads, LC-MS/MS

binding: binds
Substance: endogenous Snail (from UniProt O95863 1-264)
